No constants are given. Whether binding was seen depends on the method and setting. Binding seen in cells or lysates may run through a third protein. Some results given as binding are weak or reduced against the parent protein; the word gives no strength. For some of these results: Sequences can lack the tags named with a protein.
Tests used:
[1] = molecular target: BAFFR A52T-GFP fusion protein (human) (UniProt Q96RJ3); assay: FRET or BRET; FRET from GFP to RFP read by flow cytometry (percent FRET+ of double-positive cells) in DG-75 BAFFR KO cells co-expressing BAFFR-GFP and BAFFR-RFP fusion proteins (same variant on both, or variant-GFP with WT BAFFR-RFP); resting cells or 50 ng/ml BAFF for 1 h at 37 °C
[2] = molecular target: T1, WT BAFFR-RFP fusion protein (human) (UniProt Q96RJ3); assay: as above
T1 sequence: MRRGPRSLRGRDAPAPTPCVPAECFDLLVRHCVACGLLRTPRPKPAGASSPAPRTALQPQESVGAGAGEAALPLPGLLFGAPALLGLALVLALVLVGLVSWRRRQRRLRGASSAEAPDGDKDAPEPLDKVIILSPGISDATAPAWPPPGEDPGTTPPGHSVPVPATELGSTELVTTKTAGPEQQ

By UniProt entry, the sequences of proteins in these tests, tags left out. Residues count along the entry.
UniProt P40259, residues 29-229: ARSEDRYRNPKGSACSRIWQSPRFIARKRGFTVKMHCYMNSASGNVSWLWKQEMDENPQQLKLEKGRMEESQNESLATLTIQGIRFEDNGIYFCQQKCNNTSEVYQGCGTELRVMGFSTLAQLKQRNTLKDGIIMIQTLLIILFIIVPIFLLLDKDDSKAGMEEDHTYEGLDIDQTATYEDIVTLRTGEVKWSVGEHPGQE

[3] = molecular target: BAFFR DUP92-95-GFP fusion protein (human) (UniProt Q96RJ3); assay: as above
[4] = molecular target: BAFFR G64V-GFP fusion protein (human) (UniProt Q96RJ3); assay: as above
[5] = molecular target: BAFFR H159Y-GFP fusion protein (human) (UniProt Q96RJ3); assay: as above
CD79B-RFP fusion protein = CD79B-RFP fusion protein (UniProt P40259); assay: FRET or BRET; FRET from GFP to RFP read by flow cytometry (percent FRET+ cells) in DG-75 BAFFR KO cells co-expressing WT or variant BAFFR-GFP and CD79B-RFP; without ligand or 1 h after adding 100 ng/ml BAFF
[6] = molecular target: BAFFR P146S-GFP fusion protein (human) (UniProt Q96RJ3); assay: FRET or BRET; FRET from GFP to RFP read by flow cytometry (percent FRET+ of double-positive cells) in DG-75 BAFFR KO cells co-expressing BAFFR-GFP and BAFFR-RFP fusion proteins (same variant on both, or variant-GFP with WT BAFFR-RFP); resting cells or 50 ng/ml BAFF for 1 h at 37 °C
[7] = molecular target: WT BAFFR-GFP fusion protein (human) (UniProt Q96RJ3); assay: as above

| binding [2] | binding (CD79B-RFP fusion protein) | Substance | other results |
| --- | --- | --- | --- |
| binds | – | BAFFR A52T-GFP fusion protein (from UniProt Q96RJ3 1-184) (receptor) | binding [1]: binds |
| binds | – | BAFFR DUP92-95-GFP fusion protein (from UniProt Q96RJ3 1-184) (receptor) | binding [3]: binds |
| binds | – | BAFFR G64V-GFP fusion protein (from UniProt Q96RJ3 1-184) (receptor) | binding [4]: binds |
| binds | binds | BAFFR H159Y-GFP fusion protein (from UniProt Q96RJ3 1-184) (receptor) | binding [5]: binds |
| binds | – | BAFFR P21R-GFP fusion protein (from UniProt Q96RJ3 1-184) (receptor) | – |
| binds | binds | BAFFR P21R-H159Y-GFP fusion protein (from UniProt Q96RJ3 1-184) (receptor) | – |
| binds | binds | BAFFR P146S-GFP fusion protein (from UniProt Q96RJ3 1-184) (receptor) | binding [6]: binds |
| – | – | WT BAFFR-GFP fusion protein (from UniProt Q96RJ3 1-184) (receptor) | binding [7]: binds |
